PubChem BioAssay (NCATS)
This is one part of the list. Shown are side measurements of this screen, not its main read-out; they come without a call. Most of these compounds were active or inconclusive in the main read-out, so they are no random draw. Potencies come from curve fits of mixed quality, noted in brackets.

test: qHTS Assay for Inhibitors of PDE-IV (AID 607); settings: HEK293 ACTOne CNG channel cells, membrane potential fluorescence; measured here: parental cell counter-screen
Method in brief: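 Live HEK293 cells with a modified cyclic nucleotide-gated (CNG) channel report intracellular cAMP via membrane-potential dye fluorescence (ex 535/em 590 nm). Endogenous PDE-IV was targeted. Compounds were tested at up to 22.9 uM final; RO 20-1724 100 uM served as control.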

SMILES | AC50
CCCCC[C@H](O)/C=C\[C@@H]1[C@H](O)CC(=O)[C@@H]1CCCCCCC(=O)O | 0.794 µM [rising, partial curve, poor fit]
O[C@@H](c1ccccc1)C1CCN(CCc2ccccc2)CC1 | 15.8 µM [rising, partial curve]
COC(=O)[C@@]1(Cc2ccc(OC)cc2)[C@H]2c3cc(C(=O)N(C)C)n(Cc4ccsc4Br)c3C[C@H]2CN1C(=O)c1ccccc1 | 12.6 µM [rising, partial curve]
COc1cccc(-c2nc(NCc3ccccc3)c3ccccc3n2)c1 | 12.6 µM [rising, single point]
O=C(c1ccco1)N1CCC2(CC1)CN(Cc1cc(C(F)(F)F)cc(C(F)(F)F)c1)C2 | 10 µM [rising, single point]
COc1ccc(Br)c2c1C[C@H](C(=O)O)CC2 | 3.16 µM [rising, single point]
COc1ccc(Oc2ncc3nc(C)c(=O)n(Cc4cccc(OC)c4)c3n2)cc1 | 10 µM [rising, single point]
